# Reference: PubChem BioAssay AID248 (DTP/NCI, 2004)
# The list does not hold the whole screen: it gathers tests that were run many times, whatever their T/C, doses with no T/C, and many T/C values between a quarter and a half above the control. Further doses and runs are listed elsewhere. T/C is the treated group as % of the vehicle group. Some entries give survivors of the animals treated and no T/C: the source files T/C as zero there, which appears to mark a toxic dose or a test without result, not a measured value. Some survivor counts are full or nearly so, which does not show that the dose was tolerated: survival well below the control is almost never listed, so the zero probably covers shortened survival too. Survivors were counted at the toxicity check, usually on the fifth day, unless a day is given; later deaths do not show. Schedules are NCI's codes, taken here to give the interval after Q, in days (D) or hours (H), and the number of doses after X. For survival time, this PubChem deposit counts one and a half times the control or more as active, and values a quarter to a half above the control carry no call in these data; other NCI protocols may use other cut-offs. Some T/C values are followed by the survivors on the day toxicity was checked, most often the fifth; without a count, all were alive then. Some entries were tested several times; the values are given in rising order.
# Test system: L1210 leukemia ip in BDF1 mice, survival T/C
# Assay: NCI In Vivo Anticancer Drug Screen. Data for tumor model L1210 Leukemia (intraperitoneal) in B6D2F1 (BDF1) mice
# Conditions: higher T/C = longer survival
structure (smiles),measurement,setting,value
COc1cc2cc3c4cc(OC)c(OC)cc4cc[n+]3c(C)c2cc1OC (tested in a mixture with another compound),T/C,"T/C endpoint: mean survival time, dose: 8.0 mg/kg/injection, schedule: Q03HX008 (ip), vehicle: saline",125 % of control [9 of 10 alive]
same,T/C,"T/C endpoint: mean survival time, dose: 8.0 mg/kg/injection, schedule: Q03HX024 (ip), vehicle: saline",125 % of control
same,T/C,"T/C endpoint: mean survival time, dose: 16.0 mg/kg/injection, schedule: Q01DX009 (ip), vehicle: other",127 % of control
same,T/C,"T/C endpoint: mean survival time, dose: 16.0 mg/kg/injection, schedule: Q01DX009 (ip), vehicle: saline",128 % of control
same,T/C,"T/C endpoint: mean survival time, dose: 16.0 mg/kg/injection, schedule: Q03HX008 (ip), vehicle: saline",128 % of control
same,survivor count,"T/C endpoint: mean survival time, dose: 20.0 mg/kg/injection, schedule: Q01DX009 (ip), vehicle: saline",3 of 6
same,T/C,"T/C endpoint: mean survival time, dose: 25.0 mg/kg/injection, schedule: Q01DX009 (ip), vehicle: saline with Tween-80",125 % of control
same,T/C,"T/C endpoint: mean survival time, dose: 32.0 mg/kg/injection, schedule: Q01DX009 (ip), vehicle: clinical formulation",142 % of control
same,T/C,"T/C endpoint: mean survival time, dose: 32.0 mg/kg/injection, schedule: Q01DX009 (ip), vehicle: saline",132 % of control
same,T/C,"T/C endpoint: mean survival time, dose: 32.0 mg/kg/injection, schedule: Q03HX008 (ip), vehicle: saline",128 % of control
same,T/C,"T/C endpoint: mean survival time, dose: 32.0 mg/kg/injection, schedule: Q03HX016 (ip), vehicle: saline",131 % of control
same,T/C,"T/C endpoint: mean survival time, dose: 32.0 mg/kg/injection, schedule: Q03HX024 (ip), vehicle: saline",126 % of control
same,T/C,"T/C endpoint: mean survival time, dose: 50.0 mg/kg/injection, schedule: Q01DX009 (ip), vehicle: saline with Tween-80",127 % of control
same,T/C,"T/C endpoint: mean survival time, dose: 64.0 mg/kg/injection, schedule: Q01DX009 (ip), vehicle: Klucel (hydroxypropylcellulose) (HPC)",130 % of control
same,T/C,"T/C endpoint: mean survival time, dose: 64.0 mg/kg/injection, schedule: Q01DX009 (ip), vehicle: other",136 % of control
same,T/C,"T/C endpoint: mean survival time, dose: 64.0 mg/kg/injection, schedule: Q01DX009 (ip), vehicle: saline",134 % of control [8 of 10 alive]
same,T/C,"T/C endpoint: mean survival time, dose: 64.0 mg/kg/injection, schedule: Q03HX008 (ip), vehicle: saline",137 % of control [8 of 10 alive]
same,T/C,"T/C endpoint: mean survival time, dose: 64.0 mg/kg/injection, schedule: Q04DX003 (ip), vehicle: saline",125 % of control
same,T/C,"T/C endpoint: mean survival time, dose: 80.0 mg/kg/injection, schedule: Q01DX009 (ip), vehicle: saline",126 % of control [5 of 6 alive]
same,T/C,"T/C endpoint: mean survival time, dose: 100.0 mg/kg/injection, schedule: Q04DX002 (ip), vehicle: saline",126 % of control
same,T/C,"T/C endpoint: mean survival time, dose: 100.0 mg/kg/injection, schedule: Q04DX003 (ip), vehicle: saline with Tween-80",132 % of control
same,T/C,"T/C endpoint: mean survival time, dose: 128.0 mg/kg/injection, schedule: Q01DX001 (ip), vehicle: saline",133 % of control [8 of 10 alive]
same,survivor count,"T/C endpoint: mean survival time, dose: 128.0 mg/kg/injection, schedule: Q01DX009 (ip), vehicle: clinical formulation",8 of 10
same,T/C,"T/C endpoint: mean survival time, dose: 128.0 mg/kg/injection, schedule: Q01DX009 (ip), vehicle: other",142 % of control
same,T/C,"T/C endpoint: mean survival time, dose: 128.0 mg/kg/injection, schedule: Q04DX003 (ip), vehicle: saline",126 % of control [9 of 10 alive]
same,T/C,"T/C endpoint: mean survival time, dose: 160.0 mg/kg/injection, schedule: Q01DX009 (ip), vehicle: saline",125 and 136 % of control [5 of 6 alive]
same,survivor count,"T/C endpoint: mean survival time, dose: 200.0 mg/kg/injection, schedule: Q01DX009 (ip), vehicle: saline with Tween-80",2 of 6
same,T/C,"T/C endpoint: mean survival time, dose: 200.0 mg/kg/injection, schedule: Q04DX003 (ip), vehicle: saline with Tween-80",131 % of control
same,T/C,"T/C endpoint: mean survival time, dose: 256.0 mg/kg/injection, schedule: Q01DX001 (ip), vehicle: saline",140 % of control [8 of 10 alive]
same,survivor count,"T/C endpoint: mean survival time, dose: 256.0 mg/kg/injection, schedule: Q01DX009 (ip), vehicle: Klucel (hydroxypropylcellulose) (HPC)",1 of 10
same,survivor count,"T/C endpoint: mean survival time, dose: 256.0 mg/kg/injection, schedule: Q01DX009 (ip), vehicle: clinical formulation",1 of 10
same,survivor count,"T/C endpoint: mean survival time, dose: 256.0 mg/kg/injection, schedule: Q01DX009 (ip), vehicle: other",1 of 10
same,T/C,"T/C endpoint: mean survival time, dose: 256.0 mg/kg/injection, schedule: Q08DX002 (ip), vehicle: saline",134 % of control [8 of 10 alive]
same,survivor count,"T/C endpoint: mean survival time, dose: 400.0 mg/kg/injection, schedule: Q01DX009 (ip), vehicle: saline with Tween-80",0 of 6
same,T/C,"T/C endpoint: mean survival time, dose: 400.0 mg/kg/injection, schedule: Q04DX002 (ip), vehicle: saline",126 % of control
same,survivor count,"T/C endpoint: mean survival time, dose: 400.0 mg/kg/injection, schedule: Q04DX003 (ip), vehicle: saline with Tween-80",3 of 6
same,survivor count,"T/C endpoint: mean survival time, dose: 512.0 mg/kg/injection, schedule: Q04DX003 (ip), vehicle: saline",9 of 10
same,survivor count,"T/C endpoint: mean survival time, dose: 800.0 mg/kg/injection, schedule: Q01DX009 (ip), vehicle: saline with Tween-80",0 of 6
same,survivor count,"T/C endpoint: mean survival time, dose: 800.0 mg/kg/injection, schedule: Q04DX003 (ip), vehicle: saline with Tween-80",0 of 6
same,T/C,"T/C endpoint: median survival time, dose: 8.0 mg/kg/injection, schedule: Q03HX024 (ip), vehicle: other",131 % of control
same,T/C,"T/C endpoint: median survival time, dose: 16.0 mg/kg/injection, schedule: Q03HX016 (ip), vehicle: other",125 % of control
same,T/C,"T/C endpoint: median survival time, dose: 32.0 mg/kg/injection, schedule: Q01DX009 (ip), vehicle: clinical formulation",127 % of control
same,T/C,"T/C endpoint: median survival time, dose: 32.0 mg/kg/injection, schedule: Q01DX009 (ip), vehicle: other",136 % of control
same,T/C,"T/C endpoint: median survival time, dose: 32.0 mg/kg/injection, schedule: Q03HX008 (ip), vehicle: other",130 % of control [9 of 10 alive]
same,T/C,"T/C endpoint: median survival time, dose: 32.0 mg/kg/injection, schedule: Q03HX016 (ip), vehicle: other",135 % of control
same,T/C,"T/C endpoint: median survival time, dose: 32.0 mg/kg/injection, schedule: Q03HX024 (ip), vehicle: other",147 % of control
same,T/C,"T/C endpoint: median survival time, dose: 64.0 mg/kg/injection, schedule: Q01DX009 (ip), vehicle: Klucel (hydroxypropylcellulose) (HPC)",127 % of control
same,T/C,"T/C endpoint: median survival time, dose: 64.0 mg/kg/injection, schedule: Q01DX009 (ip), vehicle: clinical formulation",147 % of control
same,T/C,"T/C endpoint: median survival time, dose: 64.0 mg/kg/injection, schedule: Q01DX009 (ip), vehicle: other",130 % of control
same,T/C,"T/C endpoint: median survival time, dose: 64.0 mg/kg/injection, schedule: Q01DX009 (ip), vehicle: water",127 % of control
same,survivor count,"T/C endpoint: median survival time, dose: 64.0 mg/kg/injection, schedule: Q03HX008 (ip), vehicle: other",3 of 10
same,survivor count,"T/C endpoint: median survival time, dose: 64.0 mg/kg/injection, schedule: Q03HX016 (ip), vehicle: other",5 of 10
same,survivor count,"T/C endpoint: median survival time, dose: 64.0 mg/kg/injection, schedule: Q03HX024 (ip), vehicle: other",6 of 10
same,T/C,"T/C endpoint: median survival time, dose: 64.0 mg/kg/injection, schedule: Q04DX003 (ip), vehicle: other",127 % of control
same,survivor count,"T/C endpoint: median survival time, dose: 128.0 mg/kg/injection, schedule: Q01DX009 (ip), vehicle: Klucel (hydroxypropylcellulose) (HPC)",6 of 10
same,survivor count,"T/C endpoint: median survival time, dose: 128.0 mg/kg/injection, schedule: Q01DX009 (ip), vehicle: clinical formulation",0 of 10
same,survivor count,"T/C endpoint: median survival time, dose: 128.0 mg/kg/injection, schedule: Q01DX009 (ip), vehicle: other",9 of 10
same,survivor count,"T/C endpoint: median survival time, dose: 128.0 mg/kg/injection, schedule: Q03HX008 (ip), vehicle: other",0 of 10
same,T/C,"T/C endpoint: median survival time, dose: 128.0 mg/kg/injection, schedule: Q04DX003 (ip), vehicle: other",131 % of control
same,T/C,"T/C endpoint: median survival time, dose: 128.0 mg/kg/injection, schedule: Q08DX002 (ip), vehicle: other",133 % of control
same,T/C,"T/C endpoint: median survival time, dose: 256.0 mg/kg/injection, schedule: Q01DX001 (ip), vehicle: other",137 % of control
same,survivor count,"T/C endpoint: median survival time, dose: 256.0 mg/kg/injection, schedule: Q01DX009 (ip), vehicle: Klucel (hydroxypropylcellulose) (HPC)",0 of 10
same,survivor count,"T/C endpoint: median survival time, dose: 256.0 mg/kg/injection, schedule: Q01DX009 (ip), vehicle: clinical formulation",0 of 10
same,survivor count,"T/C endpoint: median survival time, dose: 256.0 mg/kg/injection, schedule: Q01DX009 (ip), vehicle: other",0 of 10
same,survivor count,"T/C endpoint: median survival time, dose: 256.0 mg/kg/injection, schedule: Q01DX009 (ip), vehicle: water",0 of 10
same,T/C,"T/C endpoint: median survival time, dose: 256.0 mg/kg/injection, schedule: Q04DX003 (ip), vehicle: other",145 % of control [9 of 10 alive]
same,T/C,"T/C endpoint: median survival time, dose: 256.0 mg/kg/injection, schedule: Q08DX002 (ip), vehicle: other",147 % of control [9 of 10 alive]
same,survivor count,"T/C endpoint: median survival time, dose: 512.0 mg/kg/injection, schedule: Q01DX001 (ip), vehicle: other",0 of 10
same,survivor count,"T/C endpoint: median survival time, dose: 512.0 mg/kg/injection, schedule: Q04DX003 (ip), vehicle: other",0 of 10
same,survivor count,"T/C endpoint: median survival time, dose: 1024.0 mg/kg/injection, schedule: Q01DX001 (ip), vehicle: other",1 of 10
same,survivor count,"T/C endpoint: median survival time, dose: 1024.0 mg/kg/injection, schedule: Q01DX001 (sc), vehicle: other",3 of 10
